# Screen size: about 360,000 compounds; about 780 (0.22%) were called active. Inconclusive means that the source gave no clear call. Such entries were picked first, then a sample of the others. Rule as the data show it: active = inhibition above about 35% (passing the limit was not always enough); inconclusive = no clear call, values can overlap the other calls.
# System: Botulinum neurotoxin type F light chain protease (Clostridium botulinum)
# Assay: BoNT/F light chain protease inhibitors, primary screen, biochemical, flow cytometry, MLPCN library (AID 588497); also: plate controls were buffer without enzyme for full effect and enzyme alone for no effect
# Settings: Multiplex microsphere protease cleavage assay, at 10 µM, stronger effect = higher value
row,Structure (SMILES),inhibition
1,O=C(c1cnn2c(C(F)F)cc(-c3ccccc3)nc12)N1CCN(Cc2ccc3c(c2)OCO3)CC1,inactive: -0.6%
2,Cc1ccc(C)c(N2C(=O)CC(Cc3ccc(Br)cc3)C2=O)c1 (stereo not drawn),inconclusive: 21.1%
3,O=C(CSc1cn(Cc2ccccc2)c2ccccc12)N1CCOCC1,inactive: -9.5%
4,COc1cc(OC)cc(-c2c(C#Cc3ccsc3)c3cc(-c4ccccc4OC)ccc3n2C)c1,inactive: -5.4%
5,CC1(Cc2ccccc2Cl)C(=O)Nc2ccc(OC(F)(F)F)cc21 (stereo not drawn),inactive: 0.8%
6,CN1CCN(C(=O)CCN2C(=O)c3ccccc3S2(=O)=O)CC1,inconclusive: 9.2%
7,BrC(/C=N/N1CCN(Cc2ccccc2)CC1)=C/c1ccccc1,inconclusive: -5.4%
8,COc1ccc(OC)c2[nH]c(C(=O)N/N=C/c3ccccc3O)cc12,inconclusive: 7.2%
9,CC(=O)NC(CC(=O)OCC(=O)NCCc1ccccc1)c1ccccc1 (stereo not drawn),inconclusive: -0.2%
10,CCc1cccc2c(C(=O)COC(=O)c3cnc(C)cn3)c[nH]c12,inactive: -6.2%
11,CC1CCN(c2cc(N3CCOCC3)c([N+](=O)[O-])cc2F)CC1,inconclusive: -1.1%
12,CCc1cccc(C)c1N1C(=O)CC(C)(C)CC1=O,inconclusive: 1.5%
13,CCCS(=O)(=O)N1CCN(CC2CC=CCC2)CC1 (stereo not drawn),inconclusive: 5.8%
14,CCC(C)[C@H](NC(=O)N1CCCCC1)C(=O)OC (stereo partly drawn),inconclusive: -53.2%
15,Cc1cn([C@H]2C[C@H](O)[C@@H](CNS(=O)(=O)N3CCCC3)O2)c(=O)[nH]c1=O,inactive: -2.6%
16,O=C(c1ccccc1)c1nc2c(n1O)CCCCC2,inactive: -2.8%
17,COc1cccc(CN2CCN(C(c3ccccc3)c3ccccc3)CC2)c1O,inconclusive: 22.7%
18,O=C(O)CCNc1ccc(NCCC(=O)O)c2c1C(=O)c1ccccc1C2=O,inactive: -13.5%
19,O=C(COc1cccc(Cl)c1)NCc1ccccc1,inconclusive: 19.2%
20,CC(=O)N1CCc2cc(S(=O)(=O)NCCC(=O)Nc3cccc(C)c3C)ccc21,inconclusive: -8.6%
21,CSc1ccc(S(=O)(=O)NCCCOC(C)C)cc1,inactive: 2.3%
22,Cc1ccc(CCNc2ncnc(Cl)c2N)cc1,inactive: -21.3%
23,Cc1onc(-c2ccccc2)c1CNS(=O)(=O)c1cccc(Cl)c1,inconclusive: 45.7%
24,Cc1ccc(NC(=O)CCC(=O)N/N=C/c2ccc(O)cc2)cc1,inconclusive: -8.4%

row,Structure (SMILES),inhibition
1,N#C/C(=C/c1ccc(N2CCOCC2)o1)c1nc2ccccc2[nH]1,active: 126%
2,CCn1nnnc1SCC(=O)N1N=C(c2cccs2)CC1c1cccs1 (stereo not drawn),inconclusive: -4.4%
3,CCN1CCN(c2ncnc3c2nnn3Cc2ccccc2)CC1,inactive: 0.7%
4,Cc1ccc2[nH]c(=O)c(CN(Cc3cccs3)Cc3nnnn3Cc3ccccc3)cc2c1,inactive: -7%
5,O=c1[nH]c2ccccc2n1C1=CCCC1,inactive: -21.2%
6,O=C(NCCCNC(=O)c1ccc(-c2cc(Cl)ccc2Cl)o1)c1cnccn1,inactive: -0.1%
7,C=CCn1cnc2c(c1=O)c1nc3ccccc3nc1n2/N=C/c1cccc(OC)c1OC,inactive: -13.7%
8,O=C(NCCS(=O)(=O)c1ccc(Br)cc1)c1ccc(Cl)cc1,inconclusive: -16.2%
9,O=C(NCC(c1ccco1)N1CCc2ccccc2C1)c1cccc(Br)c1 (stereo not drawn),inconclusive: -6%
10,Cc1nc2c(c(=O)c3ccccc3n2C)c(=O)n1C1CCCCCC1,inconclusive: 29.2%
11,Cc1cccc(NC(=O)C2CCN(S(C)(=O)=O)CC2)c1C,inconclusive: -5.4%
12,COc1ccc(C2CC(c3cccs3)=NN2C(=O)CCC(=O)O)cc1 (stereo not drawn),inconclusive: -20.3%
13,CCCCC(=O)Nc1nc(C)c(C(C)=O)s1,inactive: -6.6%
14,COc1ccccc1CNC(=O)CSc1nc(=O)n(Cc2ccncc2)c2c1CCC2,inconclusive: -9.3%
15,Brc1cccc(Nc2nc(-c3cccnc3)cs2)c1,inconclusive: 42.2%
16,CCOC(=O)C1=C(C)C(c2ccc(OC)cc2)NC(=S)N1 (stereo not drawn),inactive: -3.1%
17,COc1ccc(CC(=O)N/N=C/c2cccs2)cc1OC,active: 48.7%
18,CN(C)C(=O)Oc1cccc(NC(=O)c2ccccc2C(F)(F)F)c1,inconclusive: -44.4%
19,COn1c(-c2ccccc2)c(C=O)c2ccccc21,inconclusive: -483%
20,COC(=O)c1c(N)sc(C(=O)NCCc2ccccc2)c1C,inconclusive: 4.3%
21,O=C(CCC1CCN(Cc2ccccc2Cl)CC1)NC1CC1,inconclusive: 7.4%
22,Cc1ccc(S(=O)(=O)N(CC(=O)Nc2cccc([N+](=O)[O-])c2)C2CCCCC2)cc1,inconclusive: 15.1%
23,COC(=O)c1cc(NS(=O)(=O)c2ccc(C(C)C)cc2)ccc1N1CCOCC1,inconclusive: 50.3%
24,O=Cc1ccc(OCc2ccc3ccccc3c2)cc1,inconclusive: 16%

row,Structure (SMILES),inhibition
1,Cc1ccc(N2C(=O)[C@@H]3[C@H](C2=O)[C@H]2C=CC=NN2[C@@H]3C(=O)Nc2ccccc2)cc1,inconclusive: 0.7%
2,CN(C)c1cc(-c2cccc(C(F)(F)F)c2)oc(=O)c1Cl,inconclusive: -4.9%
3,O=C(Nc1cccc(C(=O)Nc2ccccc2F)c1)c1ccccc1,inconclusive: 3.9%
4,O=C(NCCN1CCCCC1)Nc1ccccc1Cl,inconclusive: -5.2%
5,O=[N+]([O-])c1ccc(-n2nncc2-c2ccccc2)cc1,inconclusive: 3.5%
6,COC1=CC(=O)c2c(ccc3ncnc(N)c23)C1=O,inactive: -22.5%
7,Cc1ccc(N(C(=O)Cn2nnc(-c3cccs3)n2)C(C(=O)NC2CCCC2)c2ccncc2)cc1 (stereo not drawn),inactive: -3.4%
8,CC(=O)Nc1ccc(NC(=O)c2ccccc2CCc2ccccc2)cc1,inactive: -4.9%
9,COc1ccc(C(N)CCc2ccc(C)o2)cc1 (stereo not drawn),inconclusive: -90.8%
10,Clc1cccc(Nc2nc(-c3ccncc3)nc3ccccc23)c1,inconclusive: 18.5%
11,O=C(CCc1nc(-c2ccccn2)no1)NCc1ccc2c(c1)OCO2,inconclusive: 13.9%
12,CCOc1cccc(N(C(=O)CNC(=O)c2ccco2)C(C(=O)NCC2CCCO2)c2ccccc2)c1 (stereo not drawn),inactive: 17.6%
13,COC(=O)c1ccc(NC(=O)c2ccc(NC(=O)c3ccco3)cc2)cc1,inactive: 2.9%
14,Cc1ccc2ncnc(Oc3ncccc3NC(=O)C(C)(C)C)c2c1,inconclusive: 30.2%
15,COC(=O)c1c(N)[nH]c(C(=O)c2ccccc2)c1-c1ccc(Br)cc1,inactive: -0.7%
16,O=C(NCC1CCN(S(=O)(=O)c2ccccc2)CC1)Nc1ccc(F)cc1,inconclusive: -46.3%
17,CCOC(=O)C1CCCN(CCc2ccccc2)C1 (stereo not drawn),inconclusive: 63.5%
18,CCOC(=O)C1CCN(C(=O)Nc2ccc3nc(-c4ccco4)c(-c4ccco4)nc3c2)CC1,inactive: -15.9%
19,O=C(Cc1cccs1)NCCS(=O)(=O)N1CCN(c2ccccc2F)CC1,inconclusive: -2.6%
20,Cc1c(-c2ccccc2)[n+](=O)c2c(n1[O-])CCCC2,inconclusive: -1.5%
21,CCOC(CCNC(=O)c1cn(C)c(=O)c2c1c1ccccc1n2C)OCC,active: 89.1%
22,Cc1cccc(CSc2nnc(N)n2-c2ccccc2)c1,inactive: -1.1%
23,CCOc1ccccc1NC(=O)CSc1nnc(-c2cccnc2)o1,inactive: 3.1%
24,CC(OC(=O)c1nc(Cl)ccc1Cl)C(=O)c1ccccc1 (stereo not drawn),inconclusive: 18.7%

row,Structure (SMILES),inhibition
1,O=C1CSC(=Nc2cccc(Cl)c2Cl)N1Cc1cccnc1,inconclusive: -92.4%
2,O=C(CNC(=O)c1sc2ccccc2c1Cl)Nc1ccccc1F,inconclusive: -3.6%
3,COCc1cc(Sc2cccc(Cl)c2Cl)nc(-c2ccccc2)n1,inconclusive: -27.7%
4,O=C1C2C3c4ccccc4C(c4ccccc43)C2C(=O)N1Cc1ccccn1 (stereo not drawn),inactive: -9.9%
5,CC(C)=CC1C(C(=O)NCCc2ccccc2)C1(C)C (stereo not drawn),inconclusive: 39.1%
6,O=C(CN1C(=O)C2C3CC(C(Br)C3Br)C2C1=O)N1CCN(Cc2ccccc2)CC1 (stereo not drawn),inconclusive: 22.4%
7,COc1cscc1C(=O)O,inconclusive: -36.2%
8,COc1ccc(CNCCCSc2ncccn2)cc1OC,inconclusive: 19.2%
9,CC(NC(=O)c1ccccc1C(=O)O)c1ccc(-n2ccnc2)cc1 (stereo not drawn),inconclusive: -10.1%
10,O=[N+]([O-])c1ccc(N2CCSCC2)cc1O,inconclusive: 2.1%
11,COc1cc(S(=O)(=O)NC2CC(C)(C)NC(C)(C)C2)c(OC)cc1Cl,inconclusive: -6.2%
12,COc1ccc(C)cc1NC(=O)CN1C(=O)COc2ccc(C)cc21,inconclusive: -22.7%
13,COc1ccccc1NC(=O)c1oc2ccc(C)cc2c1C,inconclusive: -21.1%
14,O=C1CCC(=O)N1CN(C(=O)c1ccco1)c1ccccc1,inconclusive: -6.2%
15,c1ccc(CN2CCOCCOCCOCC2)cc1,inconclusive: 42.3%
16,O=C(O)c1cccc(NN=C2c3ccccc3-c3ccccc32)c1,inactive: -4.9%
17,CC1(C)CC(=O)C(C(=O)c2ccccc2)C(=O)C1Cl (stereo not drawn),inconclusive: -4%
18,CN(CC(=O)N1CCCCCC1)S(=O)(=O)c1ccc(Br)cc1,inconclusive: -16.3%
19,O=C(CN1CCCC1)NCc1ccccc1,inconclusive: -11.9%
20,C[C@@H]1CN([C@H](C)CO)S(=O)(=O)c2ccc(C#Cc3ccccc3F)cc2O[C@H]1CN(C)C(=O)c1ccc2c(c1)OCO2,inactive: 0.9%
21,Cc1cc(NC(=O)COC(=O)c2ccccc2[N+](=O)[O-])no1,inactive: -0.7%

# Looked up by compound from the list above:
row,Structure (SMILES),inhibition
19,O=C(CN1CCCC1)NCc1ccccc1,inconclusive: -11.9%
2,O=C(CNC(=O)c1sc2ccccc2c1Cl)Nc1ccccc1F,inconclusive: -3.6%
18,CN(CC(=O)N1CCCCCC1)S(=O)(=O)c1ccc(Br)cc1,inconclusive: -16.3%
4,O=C1C2C3c4ccccc4C(c4ccccc43)C2C(=O)N1Cc1ccccn1 (stereo not drawn),inactive: -9.9%
5,CC(C)=CC1C(C(=O)NCCc2ccccc2)C1(C)C (stereo not drawn),inconclusive: 39.1%

# — PubChem BioAssay AID588497 (NMMLSC, 2011)
